Reference: PubChem BioAssay AID1671190 (National Center for Advancing Translational Sciences (NCATS), 2021)
Hit rate of the full screen: of about 580,000 compounds, about 6,100 (1.1%) were called active. The shares of active, inactive and inconclusive entries below differ from those in the screen. Calls follow the shape of the dose curve; as a rule, active = well fitted inhibition curve with a large enough effect; inconclusive = small, poorly fitted or top-dose-only effect, or another doubt; inactive = no such curve, though single readings can be large or run the other way. A potency beside an inconclusive call is a rough fit, not a confirmed value.

The chains behind the UniProt entries cited, without tags or fusion partners. Where a name states a change or a piece, a line headed by the entry shows the natural chain unless it says otherwise.
UniProt P18054: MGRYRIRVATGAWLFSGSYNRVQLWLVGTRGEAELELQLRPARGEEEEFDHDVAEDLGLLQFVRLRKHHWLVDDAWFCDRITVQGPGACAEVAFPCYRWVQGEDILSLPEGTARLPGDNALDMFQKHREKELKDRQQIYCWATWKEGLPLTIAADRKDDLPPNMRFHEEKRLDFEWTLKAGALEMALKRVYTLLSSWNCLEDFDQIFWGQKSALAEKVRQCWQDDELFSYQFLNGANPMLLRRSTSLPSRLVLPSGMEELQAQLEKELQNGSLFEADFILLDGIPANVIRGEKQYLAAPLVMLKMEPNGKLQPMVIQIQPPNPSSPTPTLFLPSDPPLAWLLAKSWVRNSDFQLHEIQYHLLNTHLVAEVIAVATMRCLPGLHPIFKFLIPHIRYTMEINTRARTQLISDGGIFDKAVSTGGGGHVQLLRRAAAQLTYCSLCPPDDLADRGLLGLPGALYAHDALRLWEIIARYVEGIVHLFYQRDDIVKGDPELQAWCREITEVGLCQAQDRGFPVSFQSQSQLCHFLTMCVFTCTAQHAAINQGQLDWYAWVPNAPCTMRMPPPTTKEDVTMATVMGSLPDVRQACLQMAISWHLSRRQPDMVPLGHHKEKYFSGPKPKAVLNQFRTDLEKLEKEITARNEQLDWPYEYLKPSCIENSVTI

Each compound was assayed against Polyunsaturated fatty acid lipoxygenase ALOX12 (Homo sapiens) (UniProt P18054) (assay: Primary qHTS assay for inhibitors of human arachidonate 12S-lipoxygenase (ALOX12): Round 2). Details: purified 12hLO, xylenol orange hydroperoxide absorbance; series mostly up to 108 µM.
Procedure, shortened: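 Hydroperoxide product was detected by ferrous iron/xylenol orange as the 573 to 405 nm absorbance ratio. Arachidonic acid at 40 uM (final) was turned over for 30 min at room temperature by 150 nM human 12hLO, pH 7.0 Hepes buffer, after 15 min compound preincubation.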
Potency is read from the fitted curve at half-maximal effect.

Structure (SMILES) | Potency
Oc1ccc2c(c1)OCCOCCOc1cc(O)ccc1OCCO2 | inconclusive: 35.5 µM [inhibitor, partial curve, poor fit]
COc1cc2ncc(C(=O)c3ccc(C)cc3)c(N3CCCCC3)c2cc1OC | inconclusive: 56.2 µM [inhibitor, partial curve, poor fit]
COc1cc(/C=N/NC(=O)c2ccc(NC(=O)C3CC3)cc2)ccc1OC(C)=O | inactive
O=C1C2CCCN2C(c2ccc(Cl)cc2)N1c1nccs1 (stereo not given) | inconclusive: 35.5 µM [inhibitor, single point]
Cc1cc(-c2ccnc(-c3nnc(C)n3CCN3CCOCC3)c2)ccn1 | inactive
FC(F)(F)c1ccccc1Nc1nccs1 | inconclusive: 70.8 µM [inhibitor, partial curve, poor fit]
Cc1ccc(-c2cc(C(=O)N3CCC(Cc4nncn4CC4CC4)CC3)c3ccccc3n2)cc1C | inconclusive: 79.4 µM [inhibitor, single point]
CCC(C)NC(=O)C1CCN(CCCc2ccccc2)CC1 (stereo not given) | inconclusive: 28.2 µM [inhibitor, partial curve, poor fit]
Cc1[nH]c2ccccc2c1C(=O)C(C)OC(=O)c1cccc(F)c1 (stereo not given) | inconclusive: 14.1 µM [inhibitor, full curve, poor fit]
Cc1ccccc1-c1nc(CNC(=O)Nc2ccc(Cl)cc2)c(C)o1 | inconclusive: 0.398 µM [inhibitor, full curve, poor fit]
Cc1ccc2nc(NC(=O)c3ccc(N4C(=O)CCC4=O)cc3)sc2c1 | inconclusive: 39.8 µM [inhibitor, partial curve, poor fit]
NCCCCNCCCN | inconclusive: 4.85 µM [inhibitor, full curve]
COc1cccc(CCC(=O)N2CCCN(C)c3ccccc32)c1 | inconclusive: 14.1 µM [inhibitor, full curve]
Cc1ccc2c(COC(=O)c3cccc(S(=O)(=O)N(C)C)c3)cc(=O)oc2c1 | inactive
CCn1c(-n2nc(C)cc2C)nc2c1c(=O)n(Cc1ccccc1Cl)c(=O)n2C | inactive
COc1cc(OC)c2ccc(=O)oc2c1C(CCN1CCCCC1)c1ccc(N(C)C)cc1 (stereo not given) | inactive
CCN(CC)S(=O)(=O)c1cccc(NC(=O)COC(=O)/C=C/c2ccco2)c1 | inconclusive: 141 µM [inhibitor, partial curve, poor fit]
CCCN1C(=O)/C(=C/c2ccc(C)s2)NC1=S | inconclusive: 35.5 µM [inhibitor, partial curve, poor fit]
C[n+]1cc(C(=O)N2CCCCC2)ccc1/C=C/c1c[nH]c2ccccc12 | active: 20 µM
O=C(Cn1cc(S(=O)(=O)Cc2cccc(Cl)c2)c2ccccc21)Nc1ccccc1Cl | inconclusive: 100 µM [inhibitor, partial curve, poor fit]

Structure (SMILES) | Potency
CC1(C)CC(/C=C/c2ccccc2)=Nc2ccccc2N1 | inconclusive: 22.4 µM [inhibitor, partial curve, poor fit]
O=[N+]([O-])c1ccc(N=Nc2ccc(O)cc2O)cc1 | inconclusive: 56.2 µM [inhibitor, partial curve, poor fit]
CC(=O)Oc1ccc2occ(-c3ccccc3)c2c1 | inactive
CC(=O)N1CCn2c3ccc(C)cc3c3cccc1c32 | inconclusive: 0.891 µM [inhibitor, full curve, poor fit]
O=C(CCNC(=O)Cn1ccc2ccccc2c1=O)NCc1ccc(F)cc1Cl | inactive
C=C(C)CSc1nc2sc3c(c2c(=O)n1-c1ccc(C)cc1)CCN(C)C3 | inconclusive: 50.1 µM [inhibitor, partial curve, poor fit]
NC(=O)CC[C@@H]1NC(=O)[C@H](CO)NC(=O)c2cc([N+](=O)[O-])cc(I)c2NCC[C@@H](C(N)=O)NC1=O | inconclusive: 50.1 µM [inhibitor, partial curve, poor fit]
CNC(=O)CCNC(=O)Cn1c(-c2ccccc2)cc2ccccc21 | inactive
COc1ccc(CNN2CCCCC2C(=O)Nc2ccc(OC)c(OCC(C)C)c2)cc1OC (stereo not given) | inconclusive: 1 µM [inhibitor, full curve, poor fit]
Cc1ccc(NC(=O)Cn2c(=O)n(Cc3nc(-c4ccccc4)no3)c(=O)c3ccccc32)cc1C | inconclusive: 112 µM [inhibitor, single point]
O=C(Nc1ccsc1)O[C@@H]1CO[C@H]2[C@@H]1OC[C@@H]2Nc1nccc(-c2cccc(F)c2)n1 | inconclusive: 28.2 µM [inhibitor, full curve]
COc1ccc(CNCCNC(=O)c2cccs2)cc1OC | inconclusive: 0.355 µM [inhibitor, full curve, poor fit]
Cc1nc(C)c(CCC(=O)Nc2cc(Cl)ccc2Cl)c(=O)[nH]1 | inactive
Cc1cc2cc(C)c3nnc(SCC(=O)NCc4ccco4)n3c2cc1C | inactive
C[C@@H]1O[C@@H](O[C@H]2CC[C@@]3(C)[C@H](CC[C@@H]4[C@H]3C[C@@H](O)[C@]3(C)[C@@H](C5=CC(=O)OC5)CC[C@]43O)C2)C[C@H](O)[C@@H]1O[C@H]1C[C@H](O)[C@H](O[C@H]2C[C@H](O)[C@@H](O)[C@@H](C)O2)[C@H](C)O1 (stereo in doubt) | inconclusive: 35.2 µM [inhibitor, single point]
COC(=O)c1ccccc1NC(=O)CSc1nc(=O)cc(N)n1-c1ccccc1 | inconclusive: 79.4 µM [inhibitor, partial curve, poor fit]
O=C(N1CCN([S+](=O)([O-])Cc2ccccc2F)CC1)N1CC2CC(C1)[C@H]1CCCC(=O)N1C2 (stereo not given in full) | inactive
COc1ccccc1N/C(N)=N/c1nc(CSc2ccc(C)cc2)cc(=O)[nH]1 | inactive
Cc1ccc(C(=O)OC(C)C(=O)NC(=O)NC2CCCCC2)c(O)c1 (stereo not given) | inactive
COc1ccccc1C1C(C#N)=C(N)OC2=C1C(=O)CC(c1ccccc1)C2 (stereo not given) | inconclusive: 44.7 µM [inhibitor, partial curve, poor fit]

Part of the list above in another layout:
Structure (SMILES)	Potency
COc1ccc(CNCCNC(=O)c2cccs2)cc1OC	inconclusive: 0.355 µM [inhibitor, full curve, poor fit]
COc1ccccc1N/C(N)=N/c1nc(CSc2ccc(C)cc2)cc(=O)[nH]1	inactive
